Data source: PubChem BioAssay AID1259275 (Sanger Institute, 2017)

Assay: 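Knock-downs that cut viability on their own or combined with BYL719, cetuximab or trametinib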 (primary screen)
Cells: COLO320HSR human colorectal cancer cells
Reagent: siRNA pool against human genes
Treatment: anchor drug added one day after transfection: BYL719 at 1 µM, cetuximab at 5 µg/ml or trametinib at 10 nM; DMSO as vehicle arm
Detection: 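Viability averaged over replicates as a fraction of the non-targeting pool, a robust z-score for knock-down alone, and synergy scores with BYL719 (1 µM), cetuximab (5 µg/ml) or trametinib (10 nM)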
Direction: robust z-score, siRNA alone: higher = more viable cells; strongly negative means essential; viability, knock-down alone (DMSO): higher = more viable cells; synergy score with BYL719: higher = stronger combined killing with drug
Hit rule: 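Essential means the knock-down by itself gives a robust z-score lower than -3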
Calls: active = essential (siRNA alone); inactive = no change (siRNA alone)
The whole screen tested 794 reagents; below is a random part of them. 13 of all reagents (1.6%) were called active. 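Calls mark knock-downs lethal by themselves, not drug synergy; drugs went in a day after transfection, with DMSO as vehicle.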 Viability is capped at 1. Not all columns of the deposit are shown. Not stated in the record: the amount of reagent, the time to read-out.

gene knocked down | PubChem SID | robust z-score, siRNA alone | viability, knock-down alone (DMSO) (fraction of control) | synergy score with BYL719 | outcome
EFNA5 (ephrin A5) | SID152151552 | 0.452 | 0.975 | -0.0579 | inactive
STK10 (serine/threonine kinase 10) | SID56478780 | 0.726 | 1 | -0.238 | inactive
FES (FES proto-oncogene, tyrosine kinase) | SID56478510 | 0.69 | 0.997 | -0.215 | inactive
SPHK2 (sphingosine kinase 2) | SID56478885 | 0.726 | 1 | -0.0227 | inactive
CLK4 (CDC like kinase 4) | SID56478876 | -1.59 | 0.791 | -0.153 | inactive
STK17A (serine/threonine kinase 17a) | SID152148521 | 0.127 | 0.946 | -0.0522 | inactive
TAOK3 (TAO kinase 3) | SID152152167 | -1.53 | 0.796 | -0.0306 | inactive
BTK (Bruton tyrosine kinase) | SID56478487 | -0.504 | 0.889 | -0.199 | inactive
NME1 (NME/NM23 nucleoside diphosphate kinase 1) | SID56479166 | 0.726 | 1 | -0.0556 | inactive
LATS2 (large tumor suppressor kinase 2) | SID152149461 | 0.0538 | 0.939 | -0.0596 | inactive
CDK10 (cyclin dependent kinase 10) | SID152152801 | -1.23 | 0.824 | -0.137 | inactive
MAPKAPK5 (MAPK activated protein kinase 5) | SID56478947 | -0.601 | 0.88 | -0.0862 | inactive
FYN (FYN proto-oncogene, Src family tyrosine kinase) | SID135620621 | 0.726 | 1 | -0.118 | inactive
PAK5 (p21 (RAC1) activated kinase 5) | SID56478749 | -0.697 | 0.872 | -0.105 | inactive
RPS6KA6 (ribosomal protein S6 kinase A6) | SID152153100 | 0.726 | 1 | -0.263 | inactive
COQ8B (coenzyme Q8B) | SID56478994 | 0.726 | 1 | 0.0118 | inactive
TP53BP1 (tumor protein p53 binding protein 1) | SID134309949 | 0.726 | 1 | -0.281 | inactive
MTOR (mechanistic target of rapamycin kinase) | SID135620602 | 0.222 | 0.954 | -0.119 | inactive
IKBKG | SID152147833 | 0.726 | 1 | -0.119 | inactive
SRP72 (signal recognition particle 72) | SID135623816 | -0.86 | 0.857 | -0.0564 | inactive
STK4 (serine/threonine kinase 4) | SID56478776 | -0.181 | 0.918 | -0.153 | inactive
CAMK1D (calcium/calmodulin dependent protein kinase ID) | SID152153083 | 0.667 | 0.995 | -0.134 | inactive
CDC73 (cell division cycle 73) | SID134319235 | -0.697 | 0.872 | -0.132 | inactive
AK2 (adenylate kinase 2) | SID56479162 | 0.249 | 0.957 | -0.147 | inactive
GK2 (glycerol kinase 2) | SID56479273 | 0.726 | 1 | -0.0599 | inactive
PRKCI (protein kinase C iota) | SID152150879 | -0.386 | 0.9 | -0.057 | inactive
ACVRL1 (activin A receptor like type 1) | SID152155046 | -0.781 | 0.864 | -0.125 | inactive
TAOK2 (TAO kinase 2) | SID57288958 | 0.364 | 0.967 | -0.141 | inactive
EPHA7 (EPH receptor A7) | SID152149990 | 0.453 | 0.975 | 0.0068 | inactive
PRKCSH (PRKCSH beta subunit of glucosidase II) | SID56479239 | -0.113 | 0.924 | -0.101 | inactive
PAPSS2 (3'-phosphoadenosine 5'-phosphosulfate synthase 2) | SID152148635 | -0.235 | 0.913 | -0.276 | inactive
TK2 (thymidine kinase 2) | SID152153963 | 0.708 | 0.998 | -0.00382 | inactive
PDGFRB (platelet derived growth factor receptor beta) | SID152152554 | 0.227 | 0.955 | -0.113 | inactive
TCF7L2 (transcription factor 7 like 2) | SID251759863 | 0.468 | 0.977 | -0.157 | inactive
NME4 (NME/NM23 nucleoside diphosphate kinase 4) | SID56479075 | 0.726 | 1 | -0.274 | inactive
PRKD2 (protein kinase D2) | SID135620789 | 0.672 | 0.995 | -0.167 | inactive
CLK2 (CDC like kinase 2) | SID152151259 | -0.475 | 0.892 | -0.236 | inactive
FLT4 (fms related receptor tyrosine kinase 4) | SID152148537 | 0.726 | 1 | -0.204 | inactive
STK40 (serine/threonine kinase 40) | SID56479025 | -0.00454 | 0.934 | 0.0464 | inactive
SOS2 (SOS Ras/Rho guanine nucleotide exchange factor 2) | SID152153288 | 0.59 | 0.988 | -0.0279 | inactive
GRK1 (G protein-coupled receptor kinase 1) | SID152156219 | 0.726 | 1 | -0.141 | inactive
KALRN (kalirin RhoGEF kinase) | SID134314670 | 0.726 | 1 | -0.269 | inactive
SRGAP3 (SLIT-ROBO Rho GTPase activating protein 3) | SID152151814 | 0.726 | 1 | -0.164 | inactive
HASPIN (histone H3 associated protein kinase) | SID152153141 | 0.461 | 0.976 | -0.0523 | inactive
SCYL1 (SCY1 like pseudokinase 1) | SID152146872 | 0.726 | 1 | -0.105 | inactive
RNASEL (ribonuclease L) | SID56478962 | 0.726 | 1 | -0.0297 | inactive
TAOK1 (TAO kinase 1) | SID152151735 | -0.42 | 0.897 | -0.254 | inactive
GUCY2D (guanylate cyclase 2D, retinal) | SID135620972 | -8.23 | 0.192 | -0.0838 | active
PSKH1 (protein serine kinase H1) | SID135620975 | 0.482 | 0.978 | -0.138 | inactive
KMT2B (lysine methyltransferase 2B) | SID134314396 | 0.0812 | 0.942 | -0.0443 | inactive

Reagents above marked active:
gene knocked down | PubChem SID | robust z-score, siRNA alone | viability, knock-down alone (DMSO) (fraction of control) | synergy score with BYL719 | outcome
GUCY2D (guanylate cyclase 2D, retinal) | SID135620972 | -8.23 | 0.192 | -0.0838 | active
